The text below walks through data of PMC12533644.

Construct, isoform or probe ends are uncertain for at least one entry. For part of these data: The comparison behind a weaker result is the experiment's own reference, which may not be listed here. For part of these data: Protein sequences can lack the tags named with them. For part of these data: Where cells or extracts were used, other partners may take part.

One data set deals with T1, FUBP1-strep (UniProt Q96AE4).
T1 sequence (looked up, limits assumed): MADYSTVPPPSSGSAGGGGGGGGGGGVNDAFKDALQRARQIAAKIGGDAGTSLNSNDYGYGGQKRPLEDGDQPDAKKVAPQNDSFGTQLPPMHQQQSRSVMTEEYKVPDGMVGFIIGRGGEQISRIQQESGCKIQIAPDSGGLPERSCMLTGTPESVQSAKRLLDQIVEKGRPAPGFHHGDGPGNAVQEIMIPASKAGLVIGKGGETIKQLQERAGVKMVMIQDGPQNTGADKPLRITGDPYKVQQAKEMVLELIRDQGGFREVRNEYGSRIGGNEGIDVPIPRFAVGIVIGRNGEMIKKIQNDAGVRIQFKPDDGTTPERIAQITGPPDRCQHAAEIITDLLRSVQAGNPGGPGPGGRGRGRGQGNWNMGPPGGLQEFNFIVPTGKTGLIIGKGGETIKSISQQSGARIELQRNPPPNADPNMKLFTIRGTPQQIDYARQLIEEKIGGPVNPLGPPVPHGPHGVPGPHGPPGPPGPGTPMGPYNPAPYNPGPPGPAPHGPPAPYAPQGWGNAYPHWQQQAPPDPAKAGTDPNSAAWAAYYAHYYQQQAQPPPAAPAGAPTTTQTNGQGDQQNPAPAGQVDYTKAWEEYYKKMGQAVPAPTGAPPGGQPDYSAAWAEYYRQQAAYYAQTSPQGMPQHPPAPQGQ
The data set can be described thus: EMSA. Conditions: EMSA: 10 mM Tris pH 7.5, 140 mM KCl, 10 mM NaCl, 1 mM MgCl2, 10% glycerol, 1 mM DTT, RNase inhibitor 1 U/ul, room temperature 30 min, recombinant protein, protein details: C-terminal Strep-tag, label: 5' FAM. Background: A gel shift assay detects complexes by their altered migration in electrophoresis.

For the next data set, the target named is FMRP (UniProt Q06787). As to the kind of experiment: pull-down, immunoblot. The following applies: Pull-down: HepG2 lysate (50 mM Tris pH 7.5, 100 mM NaCl, 1% NP-40, 0.5% deoxycholate) + tRNA 50 ug/ml, RT 30 min then 4 C 90 min, washes 10 mM Tris pH 7.5, 150 mM KCl, protein in an extract. A general note: In western blotting, separated proteins are transferred to a membrane and probed.

The target in another data set is T2, FUBP3 (UniProt Q96I24).
T2 sequence (looked up, limits assumed): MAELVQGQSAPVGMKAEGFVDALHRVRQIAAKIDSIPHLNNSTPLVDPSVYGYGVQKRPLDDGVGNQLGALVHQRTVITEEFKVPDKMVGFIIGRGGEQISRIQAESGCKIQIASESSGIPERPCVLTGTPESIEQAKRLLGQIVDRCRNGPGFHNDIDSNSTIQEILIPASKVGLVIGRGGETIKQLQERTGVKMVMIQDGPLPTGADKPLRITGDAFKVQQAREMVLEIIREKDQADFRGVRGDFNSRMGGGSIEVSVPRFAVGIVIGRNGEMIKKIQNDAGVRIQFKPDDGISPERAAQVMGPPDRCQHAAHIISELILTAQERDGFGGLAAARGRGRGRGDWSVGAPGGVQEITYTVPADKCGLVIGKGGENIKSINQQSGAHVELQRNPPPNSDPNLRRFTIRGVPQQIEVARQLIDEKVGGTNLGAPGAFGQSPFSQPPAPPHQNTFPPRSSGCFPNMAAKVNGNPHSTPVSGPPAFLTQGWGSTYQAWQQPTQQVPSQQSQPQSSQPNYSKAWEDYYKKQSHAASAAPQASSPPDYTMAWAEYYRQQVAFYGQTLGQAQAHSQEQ
The data set can be described thus: pull-down, immunoblot. Conditions: Pull-down: HepG2 lysate (50 mM Tris pH 7.5, 100 mM NaCl, 1% NP-40, 0.5% deoxycholate) + tRNA 50 ug/ml, RT 30 min then 4 C 90 min, washes 10 mM Tris pH 7.5, 150 mM KCl, protein in an extract.

In another data set the target is IGF2BP1 (UniProt Q9NZI8). The data set can be described thus: pull-down, immunoblot. Conditions: Pull-down: HepG2 lysate (50 mM Tris pH 7.5, 100 mM NaCl, 1% NP-40, 0.5% deoxycholate) + tRNA 50 ug/ml, RT 30 min then 4 C 90 min, washes 10 mM Tris pH 7.5, 150 mM KCl, protein in an extract.
In another data set the target is IGF2BP3 (UniProt O00425). The data set can be described thus: pull-down, immunoblot. The following applies: Pull-down: HepG2 lysate (50 mM Tris pH 7.5, 100 mM NaCl, 1% NP-40, 0.5% deoxycholate) + tRNA 50 ug/ml, RT 30 min then 4 C 90 min, washes 10 mM Tris pH 7.5, 150 mM KCl, protein in an extract.
The next data set deals with T3, NCOA5 (UniProt Q9HCD5).
T3 sequence (looked up, limits assumed): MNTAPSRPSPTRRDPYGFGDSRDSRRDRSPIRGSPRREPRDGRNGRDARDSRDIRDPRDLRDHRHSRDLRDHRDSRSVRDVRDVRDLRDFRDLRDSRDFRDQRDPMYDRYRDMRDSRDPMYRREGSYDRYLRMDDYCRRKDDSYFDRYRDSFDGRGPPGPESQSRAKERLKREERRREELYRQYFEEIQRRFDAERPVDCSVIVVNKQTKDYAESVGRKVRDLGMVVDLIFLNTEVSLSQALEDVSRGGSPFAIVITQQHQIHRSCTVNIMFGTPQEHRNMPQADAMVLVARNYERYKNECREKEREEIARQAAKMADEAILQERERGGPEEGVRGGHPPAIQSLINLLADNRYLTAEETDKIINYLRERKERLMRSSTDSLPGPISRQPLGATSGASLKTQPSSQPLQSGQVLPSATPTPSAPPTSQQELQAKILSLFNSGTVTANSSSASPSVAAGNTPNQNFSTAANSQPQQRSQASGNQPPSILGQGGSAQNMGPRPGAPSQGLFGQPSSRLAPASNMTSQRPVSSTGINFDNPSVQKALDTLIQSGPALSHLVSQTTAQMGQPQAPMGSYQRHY
As to the kind of experiment: pull-down, immunoblot. The following applies: Pull-down: HepG2 lysate (50 mM Tris pH 7.5, 100 mM NaCl, 1% NP-40, 0.5% deoxycholate) + tRNA 50 ug/ml, RT 30 min then 4 C 90 min, washes 10 mM Tris pH 7.5, 150 mM KCl, protein in an extract.

The next data set deals with T4, FUBP1 (HepG2 lysate) (UniProt Q96AE4).
T4 sequence (looked up, limits assumed): T1 sequence (looked up, limits assumed)
As to the kind of experiment: pull-down, immunoblot. Conditions: Pull-down: HepG2 lysate (50 mM Tris pH 7.5, 100 mM NaCl, 1% NP-40, 0.5% deoxycholate) + tRNA 50 ug/ml, RT 30 min then 4 C 90 min, washes 10 mM Tris pH 7.5, 150 mM KCl, protein in an extract.

In the case of UGAAAGCUGGAUACCUAAUGUCAG [Ctrl-2 (FAM)], the Kd (as a rule, the free concentration of one partner at which half of the binding sites on the other are occupied at equilibrium, for simple one-to-one binding) in the data set with FUBP1-strep is 126 nM.
Regarding AAUGCUUUACUUUCUGUGUUGAAG [Gm-1 (FAM)], in the data set with FUBP1-strep (2'-O-methyl G16), the Kd was found to be 85 nM.
As for AAUGCUUUACUUUCUGUGUUGAAG [Ctrl-1 (FAM)], the Kd in the data set with FUBP1-strep is 112 nM.
Turning to “UGAAAGCUGGAUACCUAAUGUCAG [Ctrl-2 (biotin)]”, the binding result with FMRP, in the data set with FUBP3, with IGF2BP1, in the data set with IGF2BP3 and in the data set with NCOA5 was “binds more weakly” each time.
“AAUGCUUUACUUUCUGUGUUGAAG [Gm-1 (biotin)]”: the binding result in the data set with FMRP (2'-O-methyl G16), in the data set with FUBP1 (HepG2 lysate) (2'-O-methyl G16), with FUBP3 (2'-O-methyl G16), with IGF2BP1 (2'-O-methyl G16), in the data set with IGF2BP3 (2'-O-methyl G16) and with NCOA5 (2'-O-methyl G16) was “binds” each time.
As to “AAUGCUUUACUUUCUGUGUUGAAG [Ctrl-1 (biotin)]”, the binding result with FMRP, with FUBP3, with IGF2BP1, in the data set with IGF2BP3 and in the data set with NCOA5 was “binds more weakly” in each case.
On to UGAAAGCUGGAUACCUAAUGUCAG [Am-2 (FAM)], for which, in the data set with FUBP1-strep (2'-O-methyl A13), the Kd was 110 nM.
Consider “UGAAAGCUGGAUACCUAAUGUCAG [Am-2 (biotin)]”, for which the binding result with FMRP (2'-O-methyl A13), with FUBP1 (HepG2 lysate) (2'-O-methyl A13), with FUBP3 (2'-O-methyl A13), in the data set with IGF2BP1 (2'-O-methyl A13), with IGF2BP3 (2'-O-methyl A13) and in the data set with NCOA5 (2'-O-methyl A13) was “binds” in each case.
On to “ACUGAACGCCUUUAAGUCAGAAUCCCACCC [SEC14L1 control]”, for which the binding result in the data set with FUBP1-strep is “binds more weakly”.
